PMC11612967
Results are given in words; binding and its absence hold for the method and conditions named. In cells and extracts the contact can be indirect. Some binding calls cover weakened binding; strength is not graded here. Blank lines part the entries; values can stand above or below the binder they belong to.

Amino acid sequences for entries named in this document (tags omitted).
UniProt Q8IY18: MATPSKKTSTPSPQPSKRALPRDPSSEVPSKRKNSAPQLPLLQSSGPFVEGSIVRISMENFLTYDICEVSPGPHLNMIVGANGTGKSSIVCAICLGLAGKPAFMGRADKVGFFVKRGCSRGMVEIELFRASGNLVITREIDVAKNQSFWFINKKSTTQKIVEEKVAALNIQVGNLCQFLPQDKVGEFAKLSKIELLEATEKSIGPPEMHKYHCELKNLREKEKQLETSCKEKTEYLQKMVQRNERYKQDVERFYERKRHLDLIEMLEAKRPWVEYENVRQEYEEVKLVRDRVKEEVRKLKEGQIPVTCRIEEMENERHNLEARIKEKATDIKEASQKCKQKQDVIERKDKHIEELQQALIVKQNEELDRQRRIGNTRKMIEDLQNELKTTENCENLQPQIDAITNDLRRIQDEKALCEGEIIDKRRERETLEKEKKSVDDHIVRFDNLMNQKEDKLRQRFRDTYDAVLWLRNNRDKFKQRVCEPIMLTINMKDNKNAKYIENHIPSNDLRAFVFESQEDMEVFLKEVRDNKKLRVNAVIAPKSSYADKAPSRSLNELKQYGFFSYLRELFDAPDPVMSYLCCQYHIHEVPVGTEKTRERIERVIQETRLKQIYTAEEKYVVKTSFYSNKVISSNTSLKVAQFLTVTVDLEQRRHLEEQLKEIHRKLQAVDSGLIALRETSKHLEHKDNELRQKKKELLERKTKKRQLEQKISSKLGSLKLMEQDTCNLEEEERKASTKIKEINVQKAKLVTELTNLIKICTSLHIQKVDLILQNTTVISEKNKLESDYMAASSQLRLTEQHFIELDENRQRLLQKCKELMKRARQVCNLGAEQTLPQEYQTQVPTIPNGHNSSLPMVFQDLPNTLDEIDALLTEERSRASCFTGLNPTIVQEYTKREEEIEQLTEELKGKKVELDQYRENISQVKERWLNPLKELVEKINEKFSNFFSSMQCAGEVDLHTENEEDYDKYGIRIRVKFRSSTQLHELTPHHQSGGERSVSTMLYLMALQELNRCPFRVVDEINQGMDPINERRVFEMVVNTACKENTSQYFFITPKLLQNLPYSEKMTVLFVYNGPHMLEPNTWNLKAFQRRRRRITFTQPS

Assays:
[1] = molecular target: T1, H. sapiens Nse1 (H. sapiens) (UniProt Q8WV22); test: pull-down; H. sapiens Smc5/6 subunits co-expressed in transfected HEK293 cells (10-ml scale), one subunit tagged (N- or C-terminal); lysis buffer with Benzonase and protease inhibitors, processed as for the small-scale expression in E. coli; Coomassie-stained SDS-PAGE
T1 sequence: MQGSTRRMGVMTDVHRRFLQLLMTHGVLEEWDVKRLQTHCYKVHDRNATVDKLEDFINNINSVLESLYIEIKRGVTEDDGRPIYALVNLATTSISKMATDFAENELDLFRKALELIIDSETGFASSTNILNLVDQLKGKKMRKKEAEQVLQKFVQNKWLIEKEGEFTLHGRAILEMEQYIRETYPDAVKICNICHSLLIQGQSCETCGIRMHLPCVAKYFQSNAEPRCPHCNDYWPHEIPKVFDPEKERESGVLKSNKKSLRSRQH

[2] = molecular target: T2, H. sapiens Nse3 (H. sapiens) (UniProt Q96MG7); test: as above
T2 sequence: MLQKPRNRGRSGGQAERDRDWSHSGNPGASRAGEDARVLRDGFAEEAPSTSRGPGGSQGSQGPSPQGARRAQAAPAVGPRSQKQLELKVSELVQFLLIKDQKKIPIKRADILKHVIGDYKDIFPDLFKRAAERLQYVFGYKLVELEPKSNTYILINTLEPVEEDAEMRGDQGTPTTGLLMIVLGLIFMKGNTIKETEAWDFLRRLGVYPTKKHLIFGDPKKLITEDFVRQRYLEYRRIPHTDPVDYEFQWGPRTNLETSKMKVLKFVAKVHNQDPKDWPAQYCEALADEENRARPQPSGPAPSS

[3] = molecular target: H. sapiens Smc5 (H. sapiens) (UniProt Q8IY18); test: as above
[4] = molecular target: T3, H. sapiens Smc6 (H. sapiens) (UniProt Q96SB8); test: as above
T3 sequence: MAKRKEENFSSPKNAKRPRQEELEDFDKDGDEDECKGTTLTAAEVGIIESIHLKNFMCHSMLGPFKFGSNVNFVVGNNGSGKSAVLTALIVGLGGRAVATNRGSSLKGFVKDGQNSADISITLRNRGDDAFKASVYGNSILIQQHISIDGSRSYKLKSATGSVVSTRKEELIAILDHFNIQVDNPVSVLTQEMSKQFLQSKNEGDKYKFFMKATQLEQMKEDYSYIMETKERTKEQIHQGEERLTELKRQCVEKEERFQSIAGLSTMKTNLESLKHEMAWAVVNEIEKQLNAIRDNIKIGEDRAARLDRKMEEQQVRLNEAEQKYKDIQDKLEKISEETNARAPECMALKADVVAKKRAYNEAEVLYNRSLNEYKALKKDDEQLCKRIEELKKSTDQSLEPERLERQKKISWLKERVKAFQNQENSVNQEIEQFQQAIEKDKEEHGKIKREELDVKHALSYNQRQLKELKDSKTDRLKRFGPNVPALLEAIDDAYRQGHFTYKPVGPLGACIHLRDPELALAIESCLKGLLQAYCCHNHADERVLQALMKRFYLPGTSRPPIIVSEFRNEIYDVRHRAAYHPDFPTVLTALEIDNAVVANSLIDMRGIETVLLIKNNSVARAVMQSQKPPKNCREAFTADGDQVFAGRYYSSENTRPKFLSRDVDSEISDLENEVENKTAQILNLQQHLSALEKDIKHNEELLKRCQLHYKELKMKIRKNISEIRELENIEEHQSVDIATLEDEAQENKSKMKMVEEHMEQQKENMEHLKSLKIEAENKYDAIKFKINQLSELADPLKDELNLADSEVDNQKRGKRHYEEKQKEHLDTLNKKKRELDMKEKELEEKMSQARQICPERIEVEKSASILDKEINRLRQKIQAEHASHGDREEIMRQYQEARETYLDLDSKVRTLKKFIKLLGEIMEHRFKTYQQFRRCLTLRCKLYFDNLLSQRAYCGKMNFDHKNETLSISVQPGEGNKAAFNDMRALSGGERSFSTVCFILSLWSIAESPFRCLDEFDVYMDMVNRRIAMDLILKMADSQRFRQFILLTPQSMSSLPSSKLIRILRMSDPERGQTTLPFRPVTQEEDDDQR

[5] = molecular target: T4, H. sapiens Nse2 (H. sapiens) (UniProt Q96MF7); test: as above
T4 sequence: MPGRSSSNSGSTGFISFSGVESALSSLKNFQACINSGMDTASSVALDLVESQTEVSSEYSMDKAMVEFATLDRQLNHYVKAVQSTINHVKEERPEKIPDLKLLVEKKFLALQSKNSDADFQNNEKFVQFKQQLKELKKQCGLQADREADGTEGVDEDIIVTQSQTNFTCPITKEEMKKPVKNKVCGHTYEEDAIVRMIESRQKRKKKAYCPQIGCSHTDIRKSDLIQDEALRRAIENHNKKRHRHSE

[6] = molecular target: T5, S. cerevisiae Nse1 (S. cerevisiae), Q07913; test: pull-down; S. cerevisiae Smc5/6 subunits co-expressed in E. coli Rosetta (DE3), one subunit with a Twin-Strep tag (N- or C-terminal); clarified lysate on Strep-Tactin Sepharose, 1 h at 4°C, 50 mM Tris-HCl pH 7.5, 300 mM NaCl, 5% glycerol; eluted with 2.5 mM desthiobiotin; Coomassie-stained SDS-PAGE; details: remark: other sources report otherwise
T5 chain: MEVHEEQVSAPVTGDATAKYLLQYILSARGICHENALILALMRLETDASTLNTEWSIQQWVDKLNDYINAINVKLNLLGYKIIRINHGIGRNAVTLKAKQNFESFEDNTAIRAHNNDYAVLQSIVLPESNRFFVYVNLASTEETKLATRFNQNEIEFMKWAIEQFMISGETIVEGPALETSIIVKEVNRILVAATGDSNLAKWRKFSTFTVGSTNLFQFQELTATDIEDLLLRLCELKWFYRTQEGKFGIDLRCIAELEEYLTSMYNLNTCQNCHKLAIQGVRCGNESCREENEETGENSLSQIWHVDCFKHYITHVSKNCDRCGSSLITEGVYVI

[7] = molecular target: T6, S. cerevisiae Nse3 (S. cerevisiae), Q05541; test: as above; details: remark: other sources report otherwise
T6 chain: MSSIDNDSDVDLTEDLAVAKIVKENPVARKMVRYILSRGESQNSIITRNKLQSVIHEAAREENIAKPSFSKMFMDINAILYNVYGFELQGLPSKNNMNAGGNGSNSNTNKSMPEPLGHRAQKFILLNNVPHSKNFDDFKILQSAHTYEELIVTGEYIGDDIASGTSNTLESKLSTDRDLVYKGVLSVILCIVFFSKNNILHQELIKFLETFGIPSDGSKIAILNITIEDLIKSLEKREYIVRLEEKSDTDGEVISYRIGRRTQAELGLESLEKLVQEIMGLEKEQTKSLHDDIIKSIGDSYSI

[8] = molecular target: T7, S. cerevisiae Nse4 (S. cerevisiae), P43124; test: as above; details: remark: other sources report otherwise
T7 chain: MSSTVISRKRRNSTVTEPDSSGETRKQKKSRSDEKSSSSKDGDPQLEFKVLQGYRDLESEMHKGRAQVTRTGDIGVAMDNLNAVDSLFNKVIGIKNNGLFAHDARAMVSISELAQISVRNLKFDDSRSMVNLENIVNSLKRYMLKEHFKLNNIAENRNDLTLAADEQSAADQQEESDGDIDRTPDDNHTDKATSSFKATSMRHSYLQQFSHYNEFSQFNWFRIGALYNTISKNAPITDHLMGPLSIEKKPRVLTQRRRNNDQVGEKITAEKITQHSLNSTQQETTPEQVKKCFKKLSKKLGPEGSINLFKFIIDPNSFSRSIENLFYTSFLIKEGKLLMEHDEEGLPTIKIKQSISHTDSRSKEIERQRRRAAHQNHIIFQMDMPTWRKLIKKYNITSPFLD

B3: S. cerevisiae Nse2, P38632 1-267 (protein)
chain: MALNDNPIPKSVPLHPKSGKYFHNLHARDLSNIYQQCYKQIDETINQLVDSTSPSTIGIEEQVADITSTYKLLSTYESESNSFDEHIKDLKKNFKQSSDACPQIDLSTWDKYRTGELTAPKLSELYLNMPTPEPATMVNNTDTLKILKVLPYIWNDPTCVIPDLQNPADEDDLQIEGGKIELTCPITCKPYEAPLISRKCNHVFDRDGIQNYLQGYTTRDCPQAACSQVVSMRDFVRDPIMELRCKIAKMKESQEQDKRSSQAIDVL
binding [6]: binds
binding [7]: binds
binding [8]: binds

B4: H. sapiens Nse1 (protein, UniProt Q8WV22 1-266)
chain: T1 sequence
binding [5]: binds
binding [2]: binds
binding [3]: binds
binding [4]: binds

Results, then the binder that gave them:

binding [1]: binds
binding [2]: binds
binding [3]: binds
binding [4]: binds
B1: H. sapiens Nse2 (protein, UniProt Q96MF7 1-247)
chain: T4 sequence

binding [1]: binds
binding [5]: binds
binding [3]: binds
binding [4]: binds
B2: H. sapiens Nse3 (protein, UniProt Q96MG7 1-304)
chain: T2 sequence
